Results from PubChem BioAssay AID504444 (National Center for Advancing Translational Sciences (NCATS), 2011).
In all, about 360,000 compounds went through this assay and about 7,500 (2.1%) were called active. Inconclusive means that the source gave no clear call. Such entries were picked first, then a sample of the others. Calls follow the shape of the dose curve; as a rule, active = well fitted inhibition curve with a large enough effect; inconclusive = small, poorly fitted or top-dose-only effect, or effect the other way; inactive = flat fitted curve, though single readings scatter. A potency beside an inconclusive call is a rough fit, not a confirmed value.

Assay: Nrf2 qHTS screen for inhibitors; also: nearly all actives have a fitted effect of over 60% in size
Conditions: A549 ARE-Fluc reporter, luciferase luminescence, 18-24 h; activity change, negative = inhibition: at 46 µM (top of the series)
Procedure, shortened: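 Concentration-response testing used A549 ARE_Fluc cells at 5000 cells/well. Following an 18-24 h compound incubation, viability was read by fluorescence (Ex 405/Em 525) and luciferase output by luminescence.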
% is scaled to controls: 0 for no effect and ±100 for the full control effect; potency is read from the fitted curve at half-maximal effect.

Row | Structure (SMILES) | Potency | activity change, negative = inhibition
1 | COc1ccccc1N(C(=O)c1snc(C(N)=O)c1N)C(C(=O)NC1CCCC1)c1ccc2ncccc2c1 (stereo not given) | inconclusive: 23.1 µM [activator, single point] | 
2 | CCN(CC)C1CCN(C(=O)c2ccc(OC3CCN(CCc4ccccc4)CC3)cc2)C1 (stereo not given) | inconclusive: 10.3 µM [activator, partial curve, poor fit] | 
3 | COc1ccc(N(CC(=O)NC2CCCCC2)C(=O)CNC(=O)c2ccco2)cc1 |  | inactive: 2.6%
4 | Cc1ccc(S(=O)(=O)N(C)C)cc1NC(=O)C1CCCCN1S(=O)(=O)c1ccccc1 (stereo not given) | inconclusive: 10.3 µM [falling, partial curve, poor fit] | 
5 | O=c1[nH]c(-c2ccco2)nc2sc3c(c12)CCCC3 | inconclusive: 2.91 µM [activator, partial curve] | 
6 | Cc1ccc(N(C)S(=O)(=O)c2cccc(C(=O)Nc3nc4ccccc4[nH]3)c2)cc1 | inconclusive: 29.1 µM [falling, single point] | 
7 | Cc1ccc(Cn2c(SCc3ccc(C(=O)N4CCCCCC4)cc3)nc3ccncc32)cc1 | active: 14.6 µM | 
8 | Cc1csc(NC(=O)CSc2ncnc3ccccc23)n1 | inconclusive: 23.1 µM [falling, single point] | 
9 | O=C(O)CCCCCn1c(SCc2cc(=O)n3cc(Cl)ccc3n2)nc2ccsc2c1=O | inconclusive: 6.51 µM [falling, partial curve, poor fit] | 
10 | CCCCOC(=O)c1ccc(NC(=O)Cn2nnc3sc4c(c3c2=O)CCCC4)cc1 |  | inactive: -8.36%
11 | CC[C@@H](C)[C@H](NC(=O)OC(C)(C)C)c1nnc(S(=O)(=O)Cc2cc(C)ccc2C)o1 | inconclusive: 20.6 µM [falling, single point] | 
12 | O=C(NCc1cccs1)c1ccc(Cn2c(SCc3cccc(F)c3)nc3cccnc32)cc1 | inconclusive: 18.4 µM [falling, single point] | 
13 | CCC(C)NC(=O)Cn1cc(S(=O)(=O)N2CCCC2)c(S(=O)(=O)N2CCCC2)c1 (stereo not given) | inconclusive: 16.4 µM [activator, partial curve] | 
14 | CCOC(=O)C1=C(COC(=O)[C@@H](NC(=O)c2cccc(C)c2)C(C)C)NC(=O)NC1C (stereo not given in full) | inconclusive: 20.6 µM [activator, single point] | 
15 | COc1cc(C2C=C(c3cccs3)Nc3ncnn32)cc(OC)c1OC (stereo not given) | inconclusive: 6.51 µM [activator, single point] | 
16 | O=S(=O)(NC1CCCCC1)c1cccc(-c2nnc(-c3ccccc3)o2)c1 | inconclusive: 16.4 µM [falling, partial curve, poor fit] | 
17 | Cc1cc(NC(=O)COc2ccccc2C(N)=O)no1 | inconclusive: 1.46 µM [activator, full curve] | 
18 | CCc1nc2oc3ccccc3c(=O)c2c(=O)n1-c1ccccc1 | inconclusive: 29.1 µM [activator, single point] | 
19 | COC(=O)[C@@]1(Cc2ccc(F)cc2)[C@H]2c3cc(C(=O)N(C)C)n(Cc4ccccc4)c3C[C@H]2CN1C(=O)c1ccccc1 | inconclusive: 29.1 µM [falling, single point] | 
20 | CCc1cccc(NC(=O)C(Cc2ccccc2)NS(=O)(=O)c2ccc3c(c2)oc(=O)n3C)c1 (stereo not given) |  | inactive: 14.5%
21 | CC1CC(C)CN(CCC(=O)Nc2cccc(Cl)c2)C1 (stereo not given) | inconclusive: 4.11 µM [falling, single point] | 
22 | O=C(Nc1ccc(OC(=O)c2ccccc2)c(-c2nc3ccccc3s2)c1)c1ccccc1 | inconclusive: 25.9 µM [falling, partial curve] | 

Row | Structure (SMILES) | Potency | activity change, negative = inhibition
23 | Cc1nc(C)c(C(=O)OCC(=O)N2CCN(c3ccccc3)CC2)s1 | inconclusive: 6.51 µM [falling, full curve, poor fit] | 
24 | Cc1ccc2nc(-c3ccccc3)cc(C(=O)Nc3cccnc3)c2c1 |  | inactive: 10.1%
25 | COc1ccccc1-c1cc(C(=O)Nc2ccc(F)cc2F)no1 | inconclusive: 10.3 µM [falling, single point] | 
26 | Cc1cc(C(C#N)c2ccccc2F)n2ncnc2n1 (stereo not given) | inconclusive: 20.6 µM [falling, single point] | 
27 | O=C(OCCOc1cccc(Cl)c1)c1cc(S(=O)(=O)N2CCCCC2)ccc1N1CCOCC1 | active: 11.6 µM | 
28 | C=CC[n+]1c(-c2ccccc2)csc1NC(C)(C)C |  | inactive: 14.6%
29 | Fc1cccc(C2NN=C(c3ccccc3)S2)c1 (stereo not given) | inconclusive: 29.1 µM [activator, single point] | 
30 | CCn1c2ccccc2c2cc(/C=N/n3cnnc3)ccc21 |  | inactive: -4.49%
31 | COc1cccc(NC(=O)C2CCC(CNS(=O)(=O)c3cccs3)CC2)c1 (stereo not given) | inconclusive: 29.1 µM [falling, partial curve, poor fit] | 
32 | CCOc1ccccc1N1CCN(C(=O)c2cccc(-c3ccc(O)cc3)c2)CC1 | inconclusive: 29.1 µM [falling, single point] | 
33 | Cc1ccc(C)c(N2CCN(C(=O)Cn3ncc4ccsc4c3=O)CC2)c1 | inconclusive: 9.2 µM [falling, partial curve] | 
34 | C=CCN1c2ccccc2[C@]23C[C@@H](C(=O)OC)N(C(=O)c4cc(C)oc4C)C2=NC(C(=O)OC)=C(C(=O)OC)[C@H]13 | inconclusive: 20.6 µM [falling, single point] | 
35 | Cc1cc2oc(C(=O)N(Cc3ccccc3F)C3CCS(=O)(=O)C3)c(C)c2cc1Cl (stereo not given) | inconclusive: 29.1 µM [falling, single point] | 
36 | CC(C)NS(=O)(=O)c1ccc(CCC(=O)NCc2cccnc2)cc1 | inconclusive: 2.31 µM [falling, partial curve, poor fit] | 
37 | Cc1c(Cl)cccc1NC(=O)CN1C(=O)COc2ccc(S(=O)(=O)N3CCOCC3)cc21 |  | inactive: -4.56%
38 | Cc1ccc(S(=O)(=O)Cc2ccc(C(=O)N3CCc4ccccc4C3)o2)cc1 |  | inactive: -18.5%
39 | CSc1ccccc1OCc1cc(C(=O)N2CCN(C3CCCC3)C(=O)C2)no1 | inconclusive: 29.1 µM [activator, single point] | 
40 | CCCCOc1ccc(C(=O)Nc2ccc(N3CCN(C(=O)C(C)C)CC3)cc2)cc1 | inconclusive: 14.6 µM [falling, partial curve, poor fit] | 
41 | CC(C)(C)N(Cc1ccccc1)C(=O)c1cccs1 |  | inactive: -2.3%
42 | COC(=O)c1cccc(Cn2c(Cl)c(/C=N/NC(=O)c3ccco3)sc2=O)c1 | inconclusive: 32.6 µM [falling, partial curve, poor fit] | 
43 | CCCCC1CCC(C(=O)NC2CCS(=O)(=O)C2)CC1 (stereo not given) |  | inactive: 9.61%
44 | Cc1ccc(C2CC(=O)Nc3cc4c(cc32)OCCO4)cc1 (stereo not given) | inconclusive: 29.1 µM [falling, single point] | 

Another view of some results above.
Cc1ccc(S(=O)(=O)N(C)C)cc1NC(=O)C1CCCCN1S(=O)(=O)c1ccccc1 (stereo not given)
  Potency: inconclusive: 10.3 µM [falling, partial curve, poor fit]
Cc1csc(NC(=O)CSc2ncnc3ccccc23)n1
  Potency: inconclusive: 23.1 µM [falling, single point]
Cc1cc(NC(=O)COc2ccccc2C(N)=O)no1
  Potency: inconclusive: 1.46 µM [activator, full curve]
C=CCN1c2ccccc2[C@]23C[C@@H](C(=O)OC)N(C(=O)c4cc(C)oc4C)C2=NC(C(=O)OC)=C(C(=O)OC)[C@H]13
  Potency: inconclusive: 20.6 µM [falling, single point]

Following part.

Row | Structure (SMILES) | Potency | activity change, negative = inhibition
45 | COc1ccc(CCC(=O)NCc2ccco2)cc1 | inconclusive: 23.1 µM [activator, single point] | 
46 | CCCc1c(C(=O)N/N=C/c2ccccc2C(F)(F)F)nnn1-c1nonc1N | inconclusive: 23.1 µM [falling, single point] | 
47 | CCOc1[nH]c(/N=C/c2ccco2)c(C#N)c1C#N | inactive | 
48 | CCOC(=O)N1CCN(C(=O)c2ccc(S(=O)(=O)Nc3ccccc3)cc2)CC1 | inconclusive: 23.1 µM [falling, single point] | 
49 | Cc1cc2c(NC3CCCCC3)ncnc2s1 | active: 11.6 µM | 
50 | CCCSc1nnc2c(n1)OC(c1sccc1C)Nc1ccccc1-2 (stereo not given) | inconclusive: 20.6 µM [activator, single point] | 
51 | CCOc1ncccc1C(=O)Nc1ccc2c(c1)OCO2 | inconclusive: 7.31 µM [activator, partial curve] | 
52 | COc1ccc(C)cc1NC(=O)c1ccc(NS(=O)(=O)c2cccc3cccnc23)cc1 | inconclusive: 20.6 µM [falling, single point] | 
53 | CCOC(=O)c1ccccc1NC(=O)c1ccc2c(=O)n3c(nc2c1)CCCCC3 | inconclusive: 29.1 µM [falling, single point] | 
54 | CCOc1ccc(CCNC(=O)c2ccc(Nc3nc4ccccc4n4nnnc34)cc2)cc1OCC | inconclusive: 1.46 µM [falling, partial curve, poor fit] | 
55 | O=C(CSc1nccc2ccccc12)N1CCN(c2ccccn2)CC1 | inconclusive: 20.6 µM [falling, partial curve] | 
56 | O=C(NCCOc1ccccc1)c1ccccc1[N+](=O)[O-] |  | inactive: 15.1%
57 | Cn1nnnc1SCCNC(=O)C1CCC(=O)N(Cc2ccccc2F)C1 (stereo not given) | inconclusive: 29.1 µM [falling, single point] | 
58 | CN(C(=O)c1cccc(NC(=O)Cc2cccc([N+](=O)[O-])c2)c1)C1CC1 | inconclusive: 25.9 µM [falling, partial curve, poor fit] | 
59 | CC(=O)c1cccc(NC(=O)C2COc3ccccc3O2)c1 (stereo not given) | inconclusive: 8.2 µM [activator, partial curve] | 
60 | Cc1nc(NC(=O)c2ccc([N+](=O)[O-])cc2Cl)sc1C(=O)N(C)C | inconclusive: 29.1 µM [activator, single point] | 
61 | CCC(CC)C(=O)N(c1ccc(F)cc1)C1C=CS(=O)(=O)C1 (stereo not given) | inconclusive: 3.66 µM [falling, single point] | 
62 | CCC1CCCCN1C(=O)COc1ccc2c3c(c(=O)oc2c1)CCC3 (stereo not given) |  | inactive: -18.3%
63 | Cc1cc(C(=O)C(C)OC(=O)c2ccc(NC(=O)CC#N)cc2)c(C)n1-c1ccc(OC(F)F)cc1 (stereo not given) | inconclusive: 20.6 µM [falling, single point] | 
64 | Cc1cc(SCC(=O)N2CCC(c3noc4ccc(F)cc34)CC2)nc2ccccc12 | inconclusive: 29.1 µM [falling, single point] | 
65 | Clc1cccc(Cl)c1Cn1ccc(C2CC2)n1 | inconclusive: 16.4 µM [activator, partial curve] | 
